In PubChem BioAssay AID1347076 (National Center for Advancing Translational Sciences (NCATS), 2019):
Screen size: about 400,000 compounds; about 13,000 (3.2%) were called active. Inconclusive means that the source gave no clear call. Such entries were picked first, then a sample of the others. Calls follow the shape of the dose curve; as a rule, active = well fitted cell-killing curve with a large enough effect; inconclusive = small, poorly fitted or top-dose-only effect, or effect the other way; inactive = flat fitted curve, though single readings scatter. Where the call is inconclusive, the potency comes from a doubtful curve fit.

Assay: qHTS assay for MDR1-selective chemotherapeutics: Primary screen using the drug-selected MDR subline cells KB-V1; also: nearly all actives have a fitted effect of over 60% in size
Details: KB-V1 MDR cells viability, CellTiter-Glo, 72 h; activity change, negative = cytotoxicity: at 46.1 µM (top of the series)
Method in brief: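 Potencies derive from concentration-effect curves fitted to normalized luminescence (CellTiter-Glo) of KB-V1 cells treated for 72 h at 37 degrees C in phenol-red-free DMEM containing 10% FBS.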
% is scaled to controls: 0 for no effect and ±100 for the full control effect; potency is read from the fitted curve at half-maximal effect.

SMILES	Potency	activity change, negative = cytotoxicity
CCc1nc2c(OCc3ccc4c(c3)OCO4)cccn2c1N(C=O)Cc1ccccc1	inactive	
COc1ccc(S(=O)(=O)NCc2ccc(C(=O)N3CCc4ccccc4C3)cc2)cc1	active: 5.8 µM	
CC(=O)NCCNC(=O)C1CCC(CNc2nc(=S)[nH]c3ccccc23)CC1 (centres undefined)	inconclusive: 2.31 µM [rising, partial curve, poor fit]	
O=C(Nc1cccc(C(F)(F)F)c1)c1cc2c(=O)c3ccccc3oc2nc1C(F)(F)F	active: 20.6 µM	
COC(=O)c1ccc(-n2c(C)cc(C(=O)CSc3ccc(NC(C)=O)cc3)c2C)cc1	inconclusive: 23.1 µM [cytotoxic, single point]	
COc1cc(OC)c(C(=O)NCc2nc(-c3ccccc3)no2)cc1OC	inconclusive: 18.4 µM [cytotoxic, single point]	
COC(=O)c1ccc2nc(-c3cccc(Cl)c3)c(Cc3ccccc3OC)n2c1	inconclusive: 32.6 µM [cytotoxic, single point]	
CC(=N)c1c(O)cc(C)oc1=O	inactive	
Cc1cc(C)cc(NS(=O)(=O)c2cc3[nH]c(=O)c(=O)[nH]c3cc2C)c1	inconclusive: 29.1 µM [rising, single point]	
CCC(C)CN1C(=O)CSCC1(C)C(=O)Nc1ccc2c(c1)OCCO2 (centres undefined)	inconclusive: 5.8 µM [cytotoxic, partial curve, poor fit]	
O=C(Cn1nnc(-c2ccc(C(F)(F)F)cc2)n1)NCCc1ccccc1	inconclusive: 29.1 µM [rising, single point]	
CC(=O)Oc1cc2c(cc1Cl)C(c1cccs1)CC1(CC(C)(C)NC(=S)N1)O2 (centres undefined)	inactive	
COc1ccc(SC[C@H](C)CN2CC[C@H](O)CCC2=O)cc1	inactive	
COC(=O)[C@@]1(Cc2ccc(OC)cc2)[C@H]2c3cc(C(=O)N4CCCC4)n(Cc4ccsc4Br)c3C[C@H]2CN1C(=O)c1ccccc1	inconclusive: 20.6 µM [cytotoxic, single point]	
COc1ccc2c(c1)C=C(CN1CCN(C3CCCC3)C(CCO)C1)CO2 (centres undefined)	inconclusive: 16.4 µM [cytotoxic, partial curve]	
O=C(CCS(=O)(=O)c1ccc(Br)cc1)NCCC1=CCCCC1	inactive	
CC(C)c1cccc(C(C)C)c1NC(=O)CN1C(=O)NC2(CCCC2)C1=O	inactive	
CC(c1nccs1)N(C)C(=O)CCc1nnc(-c2ccc(-c3ccccc3)cc2)o1 (centres undefined)	inactive	
O=C(CNC(=O)c1cccc(Br)c1)N/N=C/c1ccc[nH]1	inactive	
Cn1ccnc1C(=O)c1cccc(Br)c1	inactive	
Cc1ccccc1S(=O)(=O)NCC1CCCO1 (centres undefined)	inactive	
O=C(CN1C(=O)/C(=C\c2ccccc2Cl)Sc2ccccc21)NCCCN1CCOCC1	inactive	

An excerpt of these results, bar-delimited:
SMILES | Potency | activity change, negative = cytotoxicity
CC(=N)c1c(O)cc(C)oc1=O | inactive | 
Cc1cc(C)cc(NS(=O)(=O)c2cc3[nH]c(=O)c(=O)[nH]c3cc2C)c1 | inconclusive: 29.1 µM [rising, single point] | 
Cn1ccnc1C(=O)c1cccc(Br)c1 | inactive | 

Going on with the list:

SMILES	Potency	activity change, negative = cytotoxicity
CC(C)N(C)S(=O)(=O)c1ccc(NC(=O)CSC(=S)N2CCCC2)cc1	inactive	
Cc1ccc(OCc2cc(C(=O)NC3CCOC3)no2)cc1C (centres undefined)	inconclusive: 29.1 µM [rising, single point]	
CCN(CC)C(=O)N1CCN(C(=O)N2CCOCC2)CC1	inconclusive: 18.4 µM [rising, single point]	
COCc1c(C(=O)N/N=C(/C)c2ccc(OCc3ccccc3)cc2)nnn1-c1nonc1N	inconclusive: 11.6 µM [rising, partial curve, poor fit]	
Cc1cccc(NC(=O)c2cccc(N3C(=O)C4C5C=CC(C6CC56)C4C3=O)c2)c1 (centres undefined)	inconclusive: 4.61 µM [cytotoxic, partial curve, poor fit]	
CC(=O)C1=C(C)NC(SCC(=O)Nc2nc3ccccc3s2)=C(C#N)C1c1ccc(Cl)cc1 (centres undefined)	inconclusive: 29.1 µM [cytotoxic, partial curve, poor fit]	
O=C(CCl)NNC(=O)c1c(O)c2ccccc2[nH]c1=O	inconclusive: 23.1 µM [cytotoxic, single point]	
CCc1ccc(/C=N/NC(=O)c2ccc(OC3CCCC3)cc2)s1	inconclusive: 29.1 µM [cytotoxic, single point]	
COc1ccc(Nc2ncnc3scc(-c4ccc(F)cc4)c23)cc1	inconclusive: 23.1 µM [cytotoxic, single point]	
CC1(c2ccccc2)NC(=O)N(CC(=O)Nc2cc(C(F)(F)F)ccc2N2CCCCC2)C1=O (centres undefined)	inconclusive: 29.1 µM [cytotoxic, single point]	
CC(=O)c1cccc(-n2nnnc2SCC(=O)Nc2ccccc2N2CCCCC2)c1	inconclusive: 18.4 µM [cytotoxic, partial curve]	
O=C(NC1CCCC(C(F)(F)F)C1)c1ccc([N+](=O)[O-])o1 (centres undefined)	inconclusive: 18.4 µM [cytotoxic, single point]	
COc1ccc(Cn2c(SCc3ccc(C(=O)NC4CCCCC4)cc3)nc3cccnc32)cc1	inconclusive: 29.1 µM [cytotoxic, single point]	
COc1ccccc1C(=O)NC1CCSc2ccccc21 (centres undefined)		inconclusive: -5.3%
CCC1CCCCN1CCCNC(=O)c1ccc2c(c1)NC(=O)CS2 (centres undefined)	inconclusive: 29.1 µM [rising, single point]	
COc1ccc(-c2nn(-c3ccccc3)cc2/C=C/C(=O)N2CCN(c3ccccn3)CC2)cc1	active: 14.6 µM	
O=C(Cc1c[nH]c2ccccc12)NC1(C(=O)NC2CCCC2)CCCCC1	inconclusive: 18.4 µM [cytotoxic, partial curve, poor fit]	
O=c1c(-c2ccccc2)nc(-c2ccccc2)cn1O	inconclusive: 29.1 µM [rising, single point]	
CCOC(=O)Cc1nnc(NC(=O)CSc2nc3ccccc3[nH]2)s1	inconclusive: 23.1 µM [rising, partial curve, poor fit]	
O=C(CCc1nnc(CCCc2ccccc2)o1)NC(C1CC1)C1CC1	inconclusive: 29.1 µM [cytotoxic, single point]	
COc1cc2c(cc1NC(=O)COc1cc(C)cc(C)c1)oc1ccccc12	inconclusive: 29.1 µM [rising, single point]	
COc1cccc(N=Nc2c(N)[nH]n3c(=O)cc(-c4ccccc4)nc23)c1	inconclusive: 23.1 µM [cytotoxic, single point]	
